Among the data in article PMC3490959 are binding values, retold here.

In this assay the target is T1, Full-length human FLCN fused to LexA (N-FLCN-LexA-C), yeast two-hybrid bait (human) (UniProt Q8NFG4).
T1 sequence: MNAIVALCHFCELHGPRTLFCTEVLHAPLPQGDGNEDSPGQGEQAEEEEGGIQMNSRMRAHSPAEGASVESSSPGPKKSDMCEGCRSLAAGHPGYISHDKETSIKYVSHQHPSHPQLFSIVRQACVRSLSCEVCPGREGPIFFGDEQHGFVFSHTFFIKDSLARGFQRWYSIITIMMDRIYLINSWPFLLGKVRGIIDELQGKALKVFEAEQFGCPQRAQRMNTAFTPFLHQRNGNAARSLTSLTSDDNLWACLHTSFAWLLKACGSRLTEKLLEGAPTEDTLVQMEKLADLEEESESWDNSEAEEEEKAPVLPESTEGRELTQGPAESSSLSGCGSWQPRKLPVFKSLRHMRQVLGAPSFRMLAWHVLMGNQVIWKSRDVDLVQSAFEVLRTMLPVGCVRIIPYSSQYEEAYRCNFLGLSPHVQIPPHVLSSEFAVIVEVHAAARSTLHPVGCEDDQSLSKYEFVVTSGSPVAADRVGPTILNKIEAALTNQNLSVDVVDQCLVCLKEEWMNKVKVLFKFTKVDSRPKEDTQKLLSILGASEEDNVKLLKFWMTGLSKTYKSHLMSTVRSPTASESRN
The assay is described as follows: two-hybrid; FLCN-LexA bait (pB29) screened against the Hybrigenics Human Fetal Brain_RP1 library; done by Hybrigenics.

No constants are given. Whether binding was seen depends on the method and setting. Binding calls can cover weak binding; strength is not graded here. Sequences can lack the tags named with a protein.

In the case of “p0071 prey regions from the Hybrigenics Human Fetal Brain_RP1 library (domain or fragment)”, the binding entry was “binds”.
